In patent US20030049661A1 (JCR PHARMACEUTICALS, published 2003) one finds binding data, which are given here for 1 molecule.

Amino acid sequences for entries named in this document (tags omitted).
UniProt Q9EQZ6: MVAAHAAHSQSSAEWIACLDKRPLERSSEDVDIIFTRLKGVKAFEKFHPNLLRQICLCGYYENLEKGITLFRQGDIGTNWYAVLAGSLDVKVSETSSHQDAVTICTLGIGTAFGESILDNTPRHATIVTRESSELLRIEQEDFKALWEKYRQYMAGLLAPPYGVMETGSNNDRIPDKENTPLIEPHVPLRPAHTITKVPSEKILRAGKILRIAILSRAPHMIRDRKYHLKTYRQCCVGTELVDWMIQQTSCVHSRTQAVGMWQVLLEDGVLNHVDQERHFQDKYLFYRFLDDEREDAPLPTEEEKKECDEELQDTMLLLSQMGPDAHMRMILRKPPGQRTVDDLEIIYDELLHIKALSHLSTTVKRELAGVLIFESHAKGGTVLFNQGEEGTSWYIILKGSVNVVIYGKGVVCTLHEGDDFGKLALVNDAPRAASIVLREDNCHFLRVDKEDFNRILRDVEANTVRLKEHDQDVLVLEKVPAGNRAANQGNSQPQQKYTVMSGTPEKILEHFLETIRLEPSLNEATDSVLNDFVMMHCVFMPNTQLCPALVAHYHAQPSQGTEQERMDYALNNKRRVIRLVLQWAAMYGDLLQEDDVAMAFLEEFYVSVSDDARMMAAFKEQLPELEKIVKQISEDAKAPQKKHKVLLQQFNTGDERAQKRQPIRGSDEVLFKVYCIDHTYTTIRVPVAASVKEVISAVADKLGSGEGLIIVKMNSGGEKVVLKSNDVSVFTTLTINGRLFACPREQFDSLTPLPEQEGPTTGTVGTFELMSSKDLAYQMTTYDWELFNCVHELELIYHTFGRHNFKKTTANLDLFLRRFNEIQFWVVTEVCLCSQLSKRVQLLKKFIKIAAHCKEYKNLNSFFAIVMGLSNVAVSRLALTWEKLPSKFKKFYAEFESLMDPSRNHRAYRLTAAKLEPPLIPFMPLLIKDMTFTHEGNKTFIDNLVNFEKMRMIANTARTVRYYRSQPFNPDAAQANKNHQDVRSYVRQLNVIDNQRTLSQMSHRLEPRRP

In this assay the target is cAMP-GEFII (endogenous, in MIN6 cell lysate or mouse brain homogenate) (mouse) (UniProt Q9EQZ6). Briefly: GST pull-down from mouse brain homogenate on glutathione beads, anti-cAMP-GEFII immunoblot. In general terms: A western blot detects proteins with antibodies after separation by electrophoresis.

No constants are given. Whether binding was seen depends on the method and setting. Binding seen in cells or lysates may run through a third protein. Some entries that bind do so weakly or less than the wild type. Sequences can lack the tags named with a protein.

B1: GST-Rim1 (Rim1 partial sequence 530-806) (protein, UniProt Q9JIR4 530-806, looked up, not shown: a dimerising Fc or GST)
chain: PHRPKRGGKRRQMSVSSSEEEGVSTPEYTSCEDVELESESVSEKGDLDYYWLDPATWHSRETSPISSHPVTWQPSKEGDRLIGRVILNKRTTMPKESGALLGLKVVGGKMTDLGRLGAFITKVKKGSLADVVGHLRAGDEVLEWNGKPLPGATNEEVYNIILESKSEPQVEIIVSRPIGDIPRIPESSHPPLESSSSSFESQKMERPSISVISPTSPGALKDAPQVLPGQLSVKLWYDKVGHQLIVNVLQATDLPPRVDGRPRNPYVKMYFLPDRSD
Turning to B1, the binding entry was “binds”.
